# Results taken from article PMC7819943, “Rice protein-binding microarrays: a tool to detect cis-acting elements near promoter regions in rice”.
# Some of the results follow.
# Molecular target: T1, OsSMF1 (Oryza sativa, UniProt Q6ZLB0 1-436)
# T1 sequence: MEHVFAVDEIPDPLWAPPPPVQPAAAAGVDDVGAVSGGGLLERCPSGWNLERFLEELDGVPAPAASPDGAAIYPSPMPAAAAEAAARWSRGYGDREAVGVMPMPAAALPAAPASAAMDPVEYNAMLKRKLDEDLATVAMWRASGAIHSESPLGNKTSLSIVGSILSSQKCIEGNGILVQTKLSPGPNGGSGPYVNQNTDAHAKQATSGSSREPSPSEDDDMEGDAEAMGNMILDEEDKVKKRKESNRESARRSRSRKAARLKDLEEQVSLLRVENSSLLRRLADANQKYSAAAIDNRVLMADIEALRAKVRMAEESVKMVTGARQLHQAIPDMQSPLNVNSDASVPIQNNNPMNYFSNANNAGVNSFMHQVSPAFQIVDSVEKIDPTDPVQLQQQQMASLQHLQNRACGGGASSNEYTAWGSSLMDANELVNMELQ
# Assay: protein-binding microarray (RPBM); PBS, 2% BSA, 51.3 ng/ul salmon testes DNA, 50 uM zinc acetate, 200 nM TF, 25 C, 1 h; high values mean tight binding
# Conditions: protein: recombinant; tags: N-terminal polyhistidine and DsRed monomer fusion (pET32a); chain copies: 2; label: CyDye5-dUTP incorporated in the synthesized complementary strand; 3' TTTTT single-stranded linker to array surface; dsDNA, one strand shown
# How it was run: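 Per-feature fluorescence intensity (arbitrary units), read on an Axon 4000B scanner, is the binding signal. Transcription factors carrying an N-terminal polyhistidine tag and DsRed fusion were expressed in E. coli BL21-CodonPlus and purified on Ni–NTA. A custom Agilent array, made double-stranded by primer extension with Cy5-dUTP and blocked with 2% BSA, was incubated with 200 nM protein in PBS, 2% BSA, salmon testes DNA and 50 µM zinc acetate at 25 °C for 1 h and then washed.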
row,Sequence,binding signal
1,CTGTTGAACTTCTTTTCAATTGACAACGTAAGTGCTGGCGCGGAGTCACCTAGTGCAG,4420 fluorescence intensity (a.u.)
2,ATGCGTCATGCGTATAGGGATAAGTAGTCTAAGAGGAATTCGGAGTCACCTAGTGCAG,22600 fluorescence intensity (a.u.)
3,AAACCTCCCTGTACACCACCTGTTCGATCAATTGCGCCGCCGGAGTCACCTAGTGCAG,3530 fluorescence intensity (a.u.)
4,GTTATCTATTAAGAAAAGGATATGCAGTATTGTATAGTTGCGGAGTCACCTAGTGCAG,3560 fluorescence intensity (a.u.)
5,TGGACTGTGATGACGACGACGATGATGCGGGAGGTGCCTACGGAGTCACCTAGTGCAG,3680 fluorescence intensity (a.u.)
6,GAAGGGGAAGGGAGGGGATGAGATAGTTGGGCTCGTACCTCGGAGTCACCTAGTGCAG,3510 fluorescence intensity (a.u.)
7,GTAGATTGACTGCGGACAACAAAGCTGAGTCAGCGTGGGACGGAGTCACCTAGTGCAG,13900 fluorescence intensity (a.u.)
8,TCTTCTGGGACAAACTATCACTGGTCCAACCTTAGTTAAACGGAGTCACCTAGTGCAG,24200 fluorescence intensity (a.u.)
9,AACCCCACGTGGCAGCCTCTGTGTCTATGGGCCCCACCTCCGGAGTCACCTAGTGCAG,18200 fluorescence intensity (a.u.)
10,GGCGCGAATCTGCTGGGCCCCGCCACGGCGGCAGAGCAGACGGAGTCACCTAGTGCAG,3410 fluorescence intensity (a.u.)
11,ATTTCTAATGCCACGTTAACGCCACGTGGAAAGAAGACCGCGGAGTCACCTAGTGCAG,17900 fluorescence intensity (a.u.)
12,CACCCGAGTCAATGATATGTGGATCAGGATGACATATCTCCGGAGTCACCTAGTGCAG,3220 fluorescence intensity (a.u.)
13,CTACTAATCACACCTCATCTGCGAAATATGAGATCCTACGCGGAGTCACCTAGTGCAG,4770 fluorescence intensity (a.u.)
14,GCGCTGCAATGGTACATGTGCATCGTCATCTTTGTTGTCACGGAGTCACCTAGTGCAG,4610 fluorescence intensity (a.u.)
15,GCTGTGACTATAGTTATACAATCTTTTGCATCACCAATTTCGGAGTCACCTAGTGCAG,15500 fluorescence intensity (a.u.)
16,GTGATACATTGGTAAATTACCCCGTTTAAAATGAAAACATCGGAGTCACCTAGTGCAG,3190 fluorescence intensity (a.u.)
17,GACCTGCACCGTGACACGTATACCATGTCATCCAATGCACCGGAGTCACCTAGTGCAG,4100 fluorescence intensity (a.u.)
18,GGTTTGGTATCTCCTTTGGTTGCCAACGCACGCAGGGAGACGGAGTCACCTAGTGCAG,4100 fluorescence intensity (a.u.)
19,GGCCCAACATGGATGGGCCTAACGTGGAATCCAACGGTCCCGGAGTCACCTAGTGCAG,4440 fluorescence intensity (a.u.)
20,TAGTTGACATACATGCTGCATGCAACAAATATGTAGGGTGCGGAGTCACCTAGTGCAG,14500 fluorescence intensity (a.u.)
21,TTTCAAATAAGACAAACAGTCAAACGTTGAACGTGAATAGCGGAGTCACCTAGTGCAG,4040 fluorescence intensity (a.u.)

# Two entries picked at random from the list so far:
row,Sequence,binding signal
8,TCTTCTGGGACAAACTATCACTGGTCCAACCTTAGTTAAACGGAGTCACCTAGTGCAG,24200 fluorescence intensity (a.u.)
20,TAGTTGACATACATGCTGCATGCAACAAATATGTAGGGTGCGGAGTCACCTAGTGCAG,14500 fluorescence intensity (a.u.)

# Further records:

row,Sequence,binding signal
1,CGACACACGTGTTACGTGTAGTCGCTGTAATAGGCCGTGTCGGAGTCACCTAGTGCAG,7910 fluorescence intensity (a.u.)
2,AGTAGAGTACGACGACGACGCGTGGATGATGACTCGCGAACGGAGTCACCTAGTGCAG,4410 fluorescence intensity (a.u.)
3,TTTCTACTGATATGTGTCATCCAGTAGTTTGAGTATTTCTCGGAGTCACCTAGTGCAG,4050 fluorescence intensity (a.u.)
4,ATTTATATAAGTACATGAATCTAGTCACTCTCTGGTTTGTCGGAGTCACCTAGTGCAG,4290 fluorescence intensity (a.u.)
5,TGGTAAGAATTTGAGTCTATAACGCATAGGCCCAATGACTCGGAGTCACCTAGTGCAG,3540 fluorescence intensity (a.u.)
6,CAGAAGTGTAAAGTTCAGAATTTCCATCAATCCAGTTCAACGGAGTCACCTAGTGCAG,8110 fluorescence intensity (a.u.)
7,GTGGACGCGCGTCAGCCTGGCCTACTACACGTCGACGCGGCGGAGTCACCTAGTGCAG,5940 fluorescence intensity (a.u.)
8,AGGCGACGCGCGACGGGAGGAGTCAGATCGCTTCTCCTCCCGGAGTCACCTAGTGCAG,3260 fluorescence intensity (a.u.)
9,ACGTTCCACTCGCGCGCCTCCACGTCAGCACCCACTGTGGCGGAGTCACCTAGTGCAG,42300 fluorescence intensity (a.u.)
10,CTCTCTCTGCTACAGCTAGCCTACGCGGTTGACATGTGGGCGGAGTCACCTAGTGCAG,3400 fluorescence intensity (a.u.)
11,ACAGCCAACCATGAGACAACACATTGGTACCCATGGCTGTCGGAGTCACCTAGTGCAG,3430 fluorescence intensity (a.u.)
12,GTAGCCCACACGTGTTATCGTTGCCAAGCTTGCCACCCAACGGAGTCACCTAGTGCAG,7320 fluorescence intensity (a.u.)
13,CCTAACAACTACAATAATCGGAGTTGGCATCTTGTAATTTCGGAGTCACCTAGTGCAG,3750 fluorescence intensity (a.u.)
14,TTATTCCACTCTCCAAAACGTCATTACTGATTTGCTTTTCCGGAGTCACCTAGTGCAG,3270 fluorescence intensity (a.u.)
15,TTCAACCGGAATGCGCTCAGACGTGTGAGTGTACTTGTGTCGGAGTCACCTAGTGCAG,3270 fluorescence intensity (a.u.)
16,CTCAAACTCAATTATTCAAAGTGAAACCGCCAAACCGGTGCGGAGTCACCTAGTGCAG,3250 fluorescence intensity (a.u.)
17,GGAATGTATCTGGCCGGGGCTGACGTGCCAACTCCAGGAGCGGAGTCACCTAGTGCAG,10300 fluorescence intensity (a.u.)
18,TCCCGTGCGCCGCCGCCTCGTCGTTCCATCTAAGTCGCGACGGAGTCACCTAGTGCAG,3560 fluorescence intensity (a.u.)
19,TGCGGCCGCCGGCGCCGGTGACGAGGACGGTGGGGCGGGCCGGAGTCACCTAGTGCAG,5220 fluorescence intensity (a.u.)
20,GTTTCTTGCTTTCTTGGCCATGGTTTATGAATGGATTCTGCGGAGTCACCTAGTGCAG,3440 fluorescence intensity (a.u.)
21,TCCATATGGATGACGCAATAGAAATCGAAAGTGAAACAAACGGAGTCACCTAGTGCAG,5240 fluorescence intensity (a.u.)
